Measured values: EP0073865B1, “Derivatives of iodothyronine compounds and their use in an assay for the free iodothyronine compounds” (AMERSHAM INTERNATIONAL plc, priority 1981, dated 1983)

Experiments:
[1] = Free-T4 assay of serum samples diluted with water or buffer (independence of dilution); set-up: species or system human; conditions: assay of European Patent Specification No. 0026 103, compound as labelled tracer
[2] = Binding to polystyrene assay tubes (assay blank)

O=C(O)CN(CCN(CC(=O)O)CC(=O)NC(Cc1cc(I)c(Oc2cc(I)c(O)c(I)c2)c(I)c1)C(=O)O)CC(=O)O (stereo not shown) [T4.EDTA, 1-{3',5'-di-iodo-4' (3",5"-di-iodo-4"-Hydroxyphenoxy)phenyl} 2-carboxy-6,9-dicarboxymethyl-4-oxo-3,6,9,-triazaundecan-11-oic acid]
free-T4 concentration unaffected by dilution of the serum sample [1]: much more accurately true | binding to assay tubes [2]: no significant tendency to bind to assay tubes

COC(=O)[C@H](Cc1cc(I)c(Oc2cc(I)c(O)c(I)c2)c(I)c1)NC(C)=O [N-Acetyl-thyroxine-methyl ester, N-acetyl-thyroxine-methyl ester, reference compound]
free-T4 concentration unaffected by dilution of the serum sample [1]: only approximately true | binding to assay tubes [2]: binds significantly to polystyrene assay tubes
